Most values lie at the floor of the assay. Slopes are relative: functional sequences can read slightly below zero.
The substances below were run on Saccharomyces cerevisiae PS128 hsf1 delta, HSF1(1-493) fusion (assay: growth estimate (transactivation domain function in HSF1 fusion, heat-shock survival) (a.u. (slope of normalised read count over time)); higher = stronger growth at 37°C, i.e. more transactivation activity). Conditions: library: random library.
With PHAEDKSKSRECWLGECVWD the growth estimate was -0.23.
Work on PHG yielded a growth estimate of under -0.25.
PHGDYRAFTFVSRTTPVNPS showed a growth estimate of under -0.25.
In the case of PHGPP, the growth estimate is reported as under -0.253.
With PHHLCSRFNSKM the growth estimate was under -0.25.
Substance PHILLSLPYCRRCVGSPYNC has a growth estimate of under -0.25.
PHITMVVRKRSHAEREVHRL showed a growth estimate of under -0.25.
Work on PHKPSLSRGTHESRCRCNPR yielded a growth estimate of under -0.25.
Work on PHLRGVLTHSGIHYDAC yielded a growth estimate of under -0.25.
Substance PHNHSYRCDQVRILMRLLFD has a growth estimate of under -0.25.
With PHPPLVPSKALR the growth estimate was under -0.25.
Work on PHSINLVVRVGFITVSSVRT yielded a growth estimate of under -0.25.
In the case of PHSRL, the growth estimate is reported as under -0.25.
Work on PHVRNMGLPRITSLFCDCIC yielded a growth estimate of under -0.25.
For PIAFRCDGVCFTRRNMLGRG, the growth estimate was -0.243.
In the case of PIARPAYNRSFGEITIFRYP, the growth estimate is reported as under -0.25.
PICQCLQQEVYSPINGSNFA gave a growth estimate of under -0.25.
PIDKQVIERSLNGCHRCEVR showed a growth estimate of under -0.25.
For PIF, the growth estimate was under -0.25.
With PIKKPHECYSQLHCHTGVVV the growth estimate was under -0.25.
Substance PIKYPFWPVT has a growth estimate of under -0.25.
PILAQDWEDQIQVMM was tested, and the growth estimate was under -0.25.
PILDCD was tested, and the growth estimate was under -0.25.
PILSSA gave a growth estimate of under -0.25.
Substance PINKFVVSPCPTLCAFFAGW has a growth estimate of under -0.25.
With PIPHGQKSVRKSVT the growth estimate was under -0.25.
PIPLRRRDCALGPRALCLVL showed a growth estimate of under -0.25.
PIPNNESAANID showed a growth estimate of under -0.25.
Substance PIPNVTSAALGRRPGMWGHQ has a growth estimate of under -0.25.
PIQGGYSGNSHYADEC was tested, and the growth estimate was under -0.25.
Substance PIRHSYIDYSACLLVRPGKA has a growth estimate of under -0.25.
PIRIDLETVV was tested, and the growth estimate was under -0.25.
Work on PIRLIGPPTGYFYGMYVQLA yielded a growth estimate of under -0.25.
For PIRQWGRSRKWPRPL, the growth estimate was under -0.25.
With PIRVEQPFLTRWVLLSIGG the growth estimate was under -0.25.
PITAIFRVACAKTA was tested, and the growth estimate was under -0.25.
PITRAVGTGALQCPCVHIVV gave a growth estimate of under -0.25.
PIVSL showed a growth estimate of under -0.25.
Work on PKAKLQCGVRV yielded a growth estimate of under -0.25.
PKASFKVWGIRLRTTIHQLG was tested, and the growth estimate was under -0.25.
With PKCVAEEHIYPSIP the growth estimate was under -0.25.
For PKDRC, the growth estimate was under -0.25.
PKFKSILRMVNINRRELKIH was tested, and the growth estimate was under -0.25.
For PKLGP, the growth estimate was under -0.25.
Substance PKPHLVLPDYRLEELLSTAV has a growth estimate of under -0.25.
PKRGEGGATVAFMRPIYKGT showed a growth estimate of under -0.25.
For PKRLSWGTVGVNRSPSYLVR, the growth estimate was under -0.25.
Work on PKRRPGRIVHVKTDQSPATA yielded a growth estimate of under -0.25.
In the case of PKRTSHLRNAWQSPDVPI, the growth estimate is reported as under -0.25.
In the case of PKSRGIRSHS, the growth estimate is reported as under -0.25.
PKVGWTMLSGRMGLFVPAP showed a growth estimate of under -0.25.
PKVIYLVS showed a growth estimate of under -0.25.
In the case of PKVRVLSFADTSP, the growth estimate is reported as under -0.25.
Work on PLAFRPYASRSHRKVLPLDV yielded a growth estimate of under -0.25.
For PLAGSSRTNVSATALA, the growth estimate was under -0.25.
PLANRSHDD was tested, and the growth estimate was under -0.25.
PLCDVNRWEEVPNKSVSDPL showed a growth estimate of under -0.25.
PLDYVLVGTTRVSRSS was tested, and the growth estimate was under -0.25.
Work on PLGGRQVIRYGIYAGEIHWM yielded a growth estimate of under -0.25.
Substance PLGLRQPIPNVFWAMFSPIC has a growth estimate of under -0.25.
PLGPPNFVSLPG was tested, and the growth estimate was under -0.25.
PLGSWRGLCGVVSCSFIVST gave a growth estimate of under -0.25.
PLIYIPQRIPGN was tested, and the growth estimate was under -0.25.
PLLGQSLCRMPG gave a growth estimate of under -0.25.
PLLLLRACIRGSDRVITFAR was tested, and the growth estimate was under -0.25.
PLLVYTVV gave a growth estimate of under -0.25.
In the case of PLLYAAVSLFWMCRGTCVSM, the growth estimate is reported as under -0.25.
Substance PLNIEAMFSLWVSGDGPAHV has a growth estimate of under -0.25.
PLP gave a growth estimate of under -0.25.
PLPPSRSCTRKILEMTRTRR gave a growth estimate of under -0.25.
PLPSLIVERCAHESSAVRGL showed a growth estimate of under -0.25.
Substance PLQGPR has a growth estimate of -0.246.
Work on PLQGRG yielded a growth estimate of under -0.25.
PLQKFFGVKSSNCSAGCDDG gave a growth estimate of under -0.25.
With PLR the growth estimate was under -0.25.
PLRDDQMSV gave a growth estimate of under -0.25.
Substance PLRDPKAAC has a growth estimate of under -0.25.
In the case of PLREFLWVQLGIAVGES, the growth estimate is reported as under -0.25.
With PLRIPPLQLK the growth estimate was -0.246.
With PLRPVDRKYPFQ the growth estimate was under -0.25.
Substance PLSDG has a growth estimate of under -0.25.
PLSGLQQVRSVWQCCSLQSA gave a growth estimate of under -0.25.
In the case of PLSI, the growth estimate is reported as under -0.25.
Work on PLSSQIDRYYKSVLGPVYSG yielded a growth estimate of -0.241.
Work on PLSYRAHVGGLASISPFKQV yielded a growth estimate of under -0.25.
PLTCTLVERDTPGCKDPPVN gave a growth estimate of under -0.25.
Work on PLTGIWCKQGTGALDQSGIP yielded a growth estimate of under -0.25.
In the case of PLTP, the growth estimate is reported as -0.243.
With PLVAFGIPRGPSWWGPCING the growth estimate was under -0.25.
Work on PLVIRVISSKTRPAVSCPHK yielded a growth estimate of under -0.25.
PLVLPDDNPFDP gave a growth estimate of -0.179.
PLWGMGNL showed a growth estimate of under -0.25.
PMERQDGCSAQARGVNNWLP showed a growth estimate of under -0.25.
PMLPHMRSALPGKARAQGRT gave a growth estimate of under -0.25.
For PMMLTIPIGWTNDDTEHTY, the growth estimate was under -0.25.
PMQELSGCHGMGQSYCHPHR showed a growth estimate of under -0.25.
Work on PMTVNTEKRLD yielded a growth estimate of under -0.25.
PMVIAPGPMHISRTSVKALP gave a growth estimate of under -0.25.
PMVKN gave a growth estimate of under -0.25.
Substance PNASLGWAQVALSVAGVTNE has a growth estimate of under -0.25.
PNGCWYKNRFGFCLAPVNST was tested, and the growth estimate was under -0.25.
PNGLQGQRGPTPAIMDDRGV showed a growth estimate of under -0.25.
With PNHASFRASCRRS the growth estimate was under -0.25.
PNHSCAKCADTRPGIITFRT was tested, and the growth estimate was under -0.25.
PNLATATLLPVGHVSLIR showed a growth estimate of under -0.25.
For PNSVVYE, the growth estimate was under -0.25.
Work on PNTPTFVYGVVARRAPKPGI yielded a growth estimate of under -0.25.
In the case of PNVASA, the growth estimate is reported as under -0.25.
Substance PNVRVDAPTLYP has a growth estimate of under -0.25.
In the case of PNVSGRVPGGKGRYIGQYSK, the growth estimate is reported as under -0.25.
For PNYVQPVSD, the growth estimate was under -0.25.
PPAPTAR gave a growth estimate of under -0.25.
PPDARTSDI showed a growth estimate of under -0.25.
In the case of PPDGPYRHTGSPKIVQKVEL, the growth estimate is reported as under -0.25.
Work on PPDRVARMLKSGTRG yielded a growth estimate of under -0.25.
With PPDSSVTAPMRKVSLRFSRG the growth estimate was under -0.25.
For PPFKGT, the growth estimate was under -0.25.
PPFTFVYNDNTPPGGREQAI gave a growth estimate of under -0.25.
PPGFWVEKRCLK showed a growth estimate of under -0.25.
PPGPNLHAQ was tested, and the growth estimate was under -0.25.
PPGRVE showed a growth estimate of under -0.25.
PPHVQCDTGVN showed a growth estimate of under -0.25.
With PPIVSVSTLNVGIVSWP the growth estimate was under -0.25.
With PPLRRVQMKPLRTGSLNLVK the growth estimate was under -0.25.
Work on PPLSSDESNPGECLS yielded a growth estimate of under -0.25.
PPLT gave a growth estimate of under -0.25.
In the case of PPMLPSQGVTIIEFEVVSVG, the growth estimate is reported as under -0.25.
PPMTVNKPYARENEIRPCQD showed a growth estimate of under -0.25.
PPN showed a growth estimate of under -0.25.
Work on PPPIGISHDVHLMQWSNSG yielded a growth estimate of under -0.25.
For PPPMGQDRQEFGIPVSVPGI, the growth estimate was under -0.25.
With PPQDLEGFLTIVP the growth estimate was -0.204.
PPQPSHLGVFHLLGPSTGSA gave a growth estimate of under -0.25.
Work on PPR yielded a growth estimate of -0.246.
Work on PPRCCWKTGRWARSQDRP yielded a growth estimate of under -0.25.
Substance PPRFSGLWLGP has a growth estimate of under -0.25.
Work on PPRLAGDGSEHTTGGNAVSR yielded a growth estimate of under -0.25.
Work on PPRPVQFWECGYRMVV yielded a growth estimate of under -0.253.
PPRS gave a growth estimate of under -0.25.
PPRVKRGGYICPHAAYR showed a growth estimate of under -0.25.
PPS showed a growth estimate of under -0.25.
Work on PPSAIRKDPRHLFPPTL yielded a growth estimate of -0.229.
PPSVGSGRREPYFTPVARAD gave a growth estimate of under -0.25.
Substance PPTL has a growth estimate of under -0.25.
For PPTVLTGILMKLVRVRKHPM, the growth estimate was under -0.25.
